Binding signal data for 1 sequence are collected here from paper PMC5996148.

Holding throughout (assay): protein microarray (ProtoArray v5.0), streptavidin-Alexa Fluor 647
Details in all cases: 3'-biotin; 20 mM Tris (pH 7.5), 5 mM MgCl2, 100 mM KCl, 0.1% Tween-20, A/T-rich and random oligonucleotide blockers; temperature not stated; high values mean tight binding

Test [1] deals with T1, FGF13 (UniProt Q92913).
T1 sequence: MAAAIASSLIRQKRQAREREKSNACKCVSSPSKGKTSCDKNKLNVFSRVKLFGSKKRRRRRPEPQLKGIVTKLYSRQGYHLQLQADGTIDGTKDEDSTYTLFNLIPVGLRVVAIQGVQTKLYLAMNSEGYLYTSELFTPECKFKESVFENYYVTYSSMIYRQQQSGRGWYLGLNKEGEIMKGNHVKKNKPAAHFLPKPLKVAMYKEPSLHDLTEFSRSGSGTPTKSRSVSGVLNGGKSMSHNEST

Test [2] relates to FGF21 (human).
Test [3] addresses T2, FKBPL (UniProt Q9UIM3).
T2 sequence: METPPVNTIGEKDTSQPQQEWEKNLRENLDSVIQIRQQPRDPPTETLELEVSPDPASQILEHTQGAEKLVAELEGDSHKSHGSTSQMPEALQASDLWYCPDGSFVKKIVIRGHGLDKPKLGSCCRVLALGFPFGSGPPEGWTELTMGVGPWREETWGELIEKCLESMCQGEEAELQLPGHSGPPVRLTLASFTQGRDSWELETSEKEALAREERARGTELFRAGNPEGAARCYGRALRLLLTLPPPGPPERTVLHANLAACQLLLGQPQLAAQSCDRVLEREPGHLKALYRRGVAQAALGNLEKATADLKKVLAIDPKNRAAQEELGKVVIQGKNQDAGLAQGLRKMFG

The test system of test [4] is FLJ10781 (human).
Test [5] deals with FLJ20160 (human).
The subject of test [6] is FLJ20489 (human).
The subject of test [7] is FLJ22222 (human).
Test [8] concerns FLJ25758 (human).
Test [9] has as its system FLJ31438 (human).
Test [10] has as its system FLJ40504 (human).

The list shows a part of the results. For some of these results: Construct or isoform of the protein are uncertain.

As for “GGGGACAGGGGTATGGGGAGGGG [G4-3 biotinylated (CtG)]”, the binding signal in test [1] is 3.55 z-score; in test [2] it was -0.3 z-score; in test [3], -0.334 z-score; in [4] it was 3.01 z-score; in test [5] it was -0.315 z-score; in test [6], -0.322 z-score. In addition, the binding signal in test [7] was -0.303 z-score; in [8], -0.331 z-score; in test [9] it was -0.307 z-score; in test [10], -0.324 z-score.
